# Assay: Operation of EDI device with slime inhibitor added to the water to be treated
compound,measurement,setting,value
"OCl [Sodium hypochlorite, sodium hypochlorite]",Specific resistance of treated water at CT value = 100 mg · h/L as Cl2,"after the start of operation, CT value reached 100 mg·h/L as Cl2, Example 1: 0.75 mg/L as Cl2",3 MΩ · cm
same,Specific resistance of treated water at CT value = 0 mg · h/L as Cl2,"before the start of operation, EDI device of FIG. 5, RO-treated well water",18 MΩ · cm
same,Tendency of change in specific resistance of the treated water,during long operation of the EDI device,suddenly decreased early

# Reference: patent US20250346512A1, “WATER TREATMENT METHOD, WATER TREATMENT APPARATUS, SLIME INHIBITOR, AND CLEANING METHOD” (ORGANO CORPORATION, priority 2022, published 2025)
